PubChem BioAssay AID1259425, University of Nebraska Medical Center | 2018

Screen: 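Compare each knockdown with KSR1 silencing using changes in marker transcripts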 (primary screen)
Cells: HCT116 human colon cancer cells
Reagent: siRNA pool against human genes, 50 nM siRNA
Detection: 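mRNA of six signature genes measured together by branched-DNA assay after 50 nM siRNA pool, blank removed, divided by geometric mean of two housekeeping genes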
Direction: BNIP3L mRNA: higher = more BNIP3L transcript after knockdown
This is one part, drawn at random, of about 14,000 reagents. Not all columns of the deposit are shown. Not stated in the record: the time to read-out.

ADAM33 showed BNIP3L mRNA, set 1 = 0.144.
After knock-down of CDH24 the results were BNIP3L mRNA, set 1 = 0.101.
After knock-down of DRC3, the record shows BNIP3L mRNA, set 1 = 0.161.
KIF13B gave BNIP3L mRNA, set 1 = 0.0673.
Against CNOT11, the values are BNIP3L mRNA, set 1 = 0.0543.
Silencing of FCER2 resulted in: BNIP3L mRNA, set 1 = 0.0866.
GADD45B gave BNIP3L mRNA, set 1 = 0.197.
With knock-down of BICRAL the results were BNIP3L mRNA, set 1 = 0.131.
Against SRP68, the entry reads BNIP3L mRNA, set 1 = 0.141.
CEP170 scored BNIP3L mRNA, set 1 = 0.0747.
With knock-down of EIF5, the screen gave BNIP3L mRNA, set 1 = 0.0397.
Knock-down of TRAPPC4 came out at: BNIP3L mRNA, set 1 = 0.0987.
With knock-down of LAMTOR5 the results were BNIP3L mRNA, set 1 = 0.11.
After knock-down of ABLIM3, the screen gave BNIP3L mRNA, set 1 = 0.187.
OR8G1 showed BNIP3L mRNA, set 1 = 0.0814.
Against COA1, the values are BNIP3L mRNA, set 1 = 0.0984.
Depletion of H1-6 came out at: BNIP3L mRNA, set 1 = 0.273.
Against DUSP19 the deposit lists BNIP3L mRNA, set 1 = 0.0647.
After knock-down of PLK4, the screen gave BNIP3L mRNA, set 1 = 0.224.
Against MCM3, the values are BNIP3L mRNA, set 1 = 0.0855.
Knock-down of NDC1 came out at: BNIP3L mRNA, set 1 = 0.101.
For SPACA1, the values are BNIP3L mRNA, set 1 = 0.066.

2 entries from above, reformatted:
{"target gene": "COA1", "BNIP3L mRNA, set 1": 0.0984}
{"target gene": "H1-6", "BNIP3L mRNA, set 1": 0.273}

Further entries follow.
Depletion of RAB39A resulted in: BNIP3L mRNA, set 1 = 0.21.
Depletion of TAC1 came out at: BNIP3L mRNA, set 1 = 0.0783.
Depletion of POLD2 gave: BNIP3L mRNA, set 1 = 0.0773.
Silencing of PITPNM3 came out at: BNIP3L mRNA, set 1 = 0.165.
After knock-down of NUDT2 the results were BNIP3L mRNA, set 1 = 0.252.
With knock-down of RAB31, the record shows BNIP3L mRNA, set 1 = 0.184.
RPL23 showed BNIP3L mRNA, set 1 = 0.451.
Silencing of PRSS8 came out at: BNIP3L mRNA, set 1 = 0.159.
After knock-down of STARD3, the record shows BNIP3L mRNA, set 1 = 0.0652.
SYTL2 gave BNIP3L mRNA, set 1 = 0.0429.
KRAS gave BNIP3L mRNA, set 1 = 0.202.
With knock-down of NAA15 the results were BNIP3L mRNA, set 1 = 0.123.
With knock-down of FAM107B, the record shows BNIP3L mRNA, set 1 = 0.0574.
FRMD8 showed BNIP3L mRNA, set 1 = 0.291.
